Test results published in the supplement of paper PMC10849652.
This is one part of the list.

Chains of the proteins cited; added tags and fusions are not shown. Lines headed by an entry give the natural chain unless they say otherwise; changes in a name come on top.
UniProt Q96Q11: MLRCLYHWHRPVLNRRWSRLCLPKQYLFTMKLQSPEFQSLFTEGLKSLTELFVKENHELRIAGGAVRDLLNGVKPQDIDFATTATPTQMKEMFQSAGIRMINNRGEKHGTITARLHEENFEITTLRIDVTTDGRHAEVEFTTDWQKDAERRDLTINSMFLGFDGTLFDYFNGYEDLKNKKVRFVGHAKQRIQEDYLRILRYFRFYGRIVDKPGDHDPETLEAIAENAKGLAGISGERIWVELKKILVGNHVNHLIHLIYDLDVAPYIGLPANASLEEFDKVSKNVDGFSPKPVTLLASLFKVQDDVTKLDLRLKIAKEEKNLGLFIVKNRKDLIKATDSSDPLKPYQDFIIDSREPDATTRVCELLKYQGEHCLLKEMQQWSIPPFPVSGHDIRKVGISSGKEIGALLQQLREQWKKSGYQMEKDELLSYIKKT
UniProt Q9BRZ2: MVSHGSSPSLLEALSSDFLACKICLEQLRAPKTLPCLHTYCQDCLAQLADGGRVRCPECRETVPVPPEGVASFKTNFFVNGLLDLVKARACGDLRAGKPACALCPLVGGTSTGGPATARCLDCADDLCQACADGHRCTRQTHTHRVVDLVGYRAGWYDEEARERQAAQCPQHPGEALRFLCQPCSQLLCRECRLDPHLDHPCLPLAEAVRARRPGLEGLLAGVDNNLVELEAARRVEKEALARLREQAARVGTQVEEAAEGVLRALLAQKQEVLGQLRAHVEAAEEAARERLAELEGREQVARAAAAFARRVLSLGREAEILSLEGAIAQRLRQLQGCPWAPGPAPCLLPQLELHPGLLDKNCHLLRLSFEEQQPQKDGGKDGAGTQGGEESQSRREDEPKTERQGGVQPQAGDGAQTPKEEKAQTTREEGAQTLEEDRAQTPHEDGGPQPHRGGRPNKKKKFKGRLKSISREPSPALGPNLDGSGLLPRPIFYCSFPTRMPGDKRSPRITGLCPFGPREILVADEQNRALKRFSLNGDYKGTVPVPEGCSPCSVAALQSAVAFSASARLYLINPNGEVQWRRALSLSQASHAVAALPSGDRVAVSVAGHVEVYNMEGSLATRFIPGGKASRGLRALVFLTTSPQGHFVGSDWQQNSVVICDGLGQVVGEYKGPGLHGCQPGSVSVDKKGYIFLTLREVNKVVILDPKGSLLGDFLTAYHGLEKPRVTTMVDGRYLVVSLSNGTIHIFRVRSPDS
UniProt Q969M1: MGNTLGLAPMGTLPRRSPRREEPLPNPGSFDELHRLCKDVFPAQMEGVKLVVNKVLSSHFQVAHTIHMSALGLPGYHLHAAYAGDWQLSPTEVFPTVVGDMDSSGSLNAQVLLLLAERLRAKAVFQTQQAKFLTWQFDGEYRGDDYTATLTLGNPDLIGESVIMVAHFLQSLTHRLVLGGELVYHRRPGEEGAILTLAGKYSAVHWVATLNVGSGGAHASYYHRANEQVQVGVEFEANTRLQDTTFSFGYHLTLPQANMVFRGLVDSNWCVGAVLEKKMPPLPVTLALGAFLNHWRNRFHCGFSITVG
UniProt P06753, whole entry, looked up: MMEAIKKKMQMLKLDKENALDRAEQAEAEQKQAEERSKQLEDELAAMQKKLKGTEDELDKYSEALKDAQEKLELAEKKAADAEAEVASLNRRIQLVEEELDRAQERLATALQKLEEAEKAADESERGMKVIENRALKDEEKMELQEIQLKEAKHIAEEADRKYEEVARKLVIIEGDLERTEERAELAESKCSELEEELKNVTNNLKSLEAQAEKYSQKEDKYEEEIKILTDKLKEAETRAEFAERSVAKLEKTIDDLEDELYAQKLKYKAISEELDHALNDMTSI
UniProt P13693: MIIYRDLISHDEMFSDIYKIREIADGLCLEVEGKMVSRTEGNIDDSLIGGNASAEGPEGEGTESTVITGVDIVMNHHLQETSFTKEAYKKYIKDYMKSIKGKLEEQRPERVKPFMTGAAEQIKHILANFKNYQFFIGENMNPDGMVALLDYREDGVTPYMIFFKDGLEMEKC
UniProt Q9BUZ4: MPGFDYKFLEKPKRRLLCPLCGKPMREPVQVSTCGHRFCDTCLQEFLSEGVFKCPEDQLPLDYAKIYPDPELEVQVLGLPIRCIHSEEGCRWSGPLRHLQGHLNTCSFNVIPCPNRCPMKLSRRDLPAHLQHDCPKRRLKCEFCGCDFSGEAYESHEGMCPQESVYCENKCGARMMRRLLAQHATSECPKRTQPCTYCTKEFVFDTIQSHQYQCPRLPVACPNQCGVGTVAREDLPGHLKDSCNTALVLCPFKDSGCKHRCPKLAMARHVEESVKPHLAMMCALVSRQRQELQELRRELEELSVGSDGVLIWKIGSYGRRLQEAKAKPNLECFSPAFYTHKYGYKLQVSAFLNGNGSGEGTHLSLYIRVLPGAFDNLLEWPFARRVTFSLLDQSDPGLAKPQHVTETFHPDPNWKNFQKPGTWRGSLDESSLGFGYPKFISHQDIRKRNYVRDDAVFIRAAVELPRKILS
UniProt Q16890: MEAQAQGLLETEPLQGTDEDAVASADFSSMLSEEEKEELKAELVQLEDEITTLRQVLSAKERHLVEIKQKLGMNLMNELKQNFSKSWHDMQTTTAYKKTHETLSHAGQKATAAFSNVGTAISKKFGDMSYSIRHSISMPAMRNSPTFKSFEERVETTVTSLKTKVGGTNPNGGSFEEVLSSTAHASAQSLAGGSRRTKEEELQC
UniProt O14656: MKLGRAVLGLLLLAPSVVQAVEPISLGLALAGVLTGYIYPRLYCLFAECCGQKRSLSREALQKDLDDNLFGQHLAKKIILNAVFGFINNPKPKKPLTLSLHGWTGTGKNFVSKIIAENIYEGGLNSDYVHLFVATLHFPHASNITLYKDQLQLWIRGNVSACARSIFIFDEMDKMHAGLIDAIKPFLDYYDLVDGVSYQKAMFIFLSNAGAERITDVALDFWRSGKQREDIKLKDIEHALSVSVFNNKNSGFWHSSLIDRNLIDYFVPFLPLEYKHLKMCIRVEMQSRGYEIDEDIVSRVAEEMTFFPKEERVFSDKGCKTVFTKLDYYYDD
UniProt Q96S44: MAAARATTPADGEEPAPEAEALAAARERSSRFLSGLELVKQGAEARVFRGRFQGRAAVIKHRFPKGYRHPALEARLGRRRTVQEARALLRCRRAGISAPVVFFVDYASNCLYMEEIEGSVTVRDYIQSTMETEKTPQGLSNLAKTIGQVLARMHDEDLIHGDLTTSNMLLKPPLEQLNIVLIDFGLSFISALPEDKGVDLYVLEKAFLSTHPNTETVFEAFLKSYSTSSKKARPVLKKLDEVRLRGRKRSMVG
UniProt Q9Y296, whole entry, looked up: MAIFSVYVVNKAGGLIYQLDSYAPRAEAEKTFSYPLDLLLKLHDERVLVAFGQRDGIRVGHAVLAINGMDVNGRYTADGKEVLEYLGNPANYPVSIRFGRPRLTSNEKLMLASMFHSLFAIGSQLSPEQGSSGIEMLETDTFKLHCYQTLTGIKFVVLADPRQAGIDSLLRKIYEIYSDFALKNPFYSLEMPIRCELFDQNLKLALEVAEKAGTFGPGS
UniProt Q15650: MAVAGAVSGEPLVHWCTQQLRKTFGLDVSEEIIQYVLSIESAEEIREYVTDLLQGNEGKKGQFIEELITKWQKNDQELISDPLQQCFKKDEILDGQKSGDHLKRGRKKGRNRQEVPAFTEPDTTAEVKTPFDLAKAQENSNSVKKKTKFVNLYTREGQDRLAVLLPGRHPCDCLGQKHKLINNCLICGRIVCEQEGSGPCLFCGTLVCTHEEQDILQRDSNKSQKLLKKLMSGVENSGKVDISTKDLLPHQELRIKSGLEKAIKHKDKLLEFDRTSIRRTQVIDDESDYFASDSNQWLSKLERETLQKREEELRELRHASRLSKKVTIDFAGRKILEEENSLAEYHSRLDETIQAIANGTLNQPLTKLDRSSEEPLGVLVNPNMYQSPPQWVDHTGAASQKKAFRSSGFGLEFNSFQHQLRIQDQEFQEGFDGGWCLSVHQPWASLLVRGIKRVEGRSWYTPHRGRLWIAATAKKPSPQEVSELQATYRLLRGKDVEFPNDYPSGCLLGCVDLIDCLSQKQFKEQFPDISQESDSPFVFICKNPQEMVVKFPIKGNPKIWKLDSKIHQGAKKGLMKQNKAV
UniProt Q9C0C2: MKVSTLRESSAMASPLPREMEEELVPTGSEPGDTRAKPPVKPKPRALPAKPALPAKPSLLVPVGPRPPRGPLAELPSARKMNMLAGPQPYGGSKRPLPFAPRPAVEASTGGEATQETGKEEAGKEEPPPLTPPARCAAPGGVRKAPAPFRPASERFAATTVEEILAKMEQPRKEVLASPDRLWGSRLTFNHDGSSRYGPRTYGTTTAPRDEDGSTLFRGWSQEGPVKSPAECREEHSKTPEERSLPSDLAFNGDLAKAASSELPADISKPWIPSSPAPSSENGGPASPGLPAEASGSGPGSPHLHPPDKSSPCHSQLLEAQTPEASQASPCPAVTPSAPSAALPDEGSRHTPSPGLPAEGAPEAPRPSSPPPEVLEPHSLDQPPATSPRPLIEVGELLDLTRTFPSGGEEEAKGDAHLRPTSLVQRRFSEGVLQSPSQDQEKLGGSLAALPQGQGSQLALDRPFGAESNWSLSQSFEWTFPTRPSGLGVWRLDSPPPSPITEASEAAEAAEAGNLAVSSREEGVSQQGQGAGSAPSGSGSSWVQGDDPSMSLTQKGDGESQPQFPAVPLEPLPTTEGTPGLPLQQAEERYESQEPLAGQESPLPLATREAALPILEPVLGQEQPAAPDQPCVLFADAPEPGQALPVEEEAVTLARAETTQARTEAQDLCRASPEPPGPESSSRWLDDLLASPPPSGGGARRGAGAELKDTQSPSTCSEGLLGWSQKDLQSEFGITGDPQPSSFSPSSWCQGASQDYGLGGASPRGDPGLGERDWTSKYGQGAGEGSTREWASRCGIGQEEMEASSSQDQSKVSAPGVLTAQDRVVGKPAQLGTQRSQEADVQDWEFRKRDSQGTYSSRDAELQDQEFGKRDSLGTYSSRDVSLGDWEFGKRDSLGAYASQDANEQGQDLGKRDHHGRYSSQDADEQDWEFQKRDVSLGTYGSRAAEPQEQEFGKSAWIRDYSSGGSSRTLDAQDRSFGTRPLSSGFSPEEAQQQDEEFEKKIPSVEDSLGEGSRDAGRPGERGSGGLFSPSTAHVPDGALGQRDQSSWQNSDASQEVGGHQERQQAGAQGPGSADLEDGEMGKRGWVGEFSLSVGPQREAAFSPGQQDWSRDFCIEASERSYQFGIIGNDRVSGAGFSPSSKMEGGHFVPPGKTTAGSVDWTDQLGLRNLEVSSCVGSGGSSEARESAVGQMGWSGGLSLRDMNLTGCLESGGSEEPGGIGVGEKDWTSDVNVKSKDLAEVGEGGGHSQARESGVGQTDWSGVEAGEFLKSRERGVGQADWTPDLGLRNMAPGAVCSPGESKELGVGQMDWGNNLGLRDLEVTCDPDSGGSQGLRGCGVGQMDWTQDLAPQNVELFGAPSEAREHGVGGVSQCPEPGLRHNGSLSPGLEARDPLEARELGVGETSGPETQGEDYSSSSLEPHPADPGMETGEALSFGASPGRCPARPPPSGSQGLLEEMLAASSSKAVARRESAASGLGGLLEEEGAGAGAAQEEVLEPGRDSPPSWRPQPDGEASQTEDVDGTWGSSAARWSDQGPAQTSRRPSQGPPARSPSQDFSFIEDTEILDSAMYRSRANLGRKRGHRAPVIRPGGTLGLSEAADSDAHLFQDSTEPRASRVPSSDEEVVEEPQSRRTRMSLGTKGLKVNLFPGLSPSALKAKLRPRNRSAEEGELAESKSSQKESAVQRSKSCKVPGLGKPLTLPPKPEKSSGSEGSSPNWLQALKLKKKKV
UniProt O75157: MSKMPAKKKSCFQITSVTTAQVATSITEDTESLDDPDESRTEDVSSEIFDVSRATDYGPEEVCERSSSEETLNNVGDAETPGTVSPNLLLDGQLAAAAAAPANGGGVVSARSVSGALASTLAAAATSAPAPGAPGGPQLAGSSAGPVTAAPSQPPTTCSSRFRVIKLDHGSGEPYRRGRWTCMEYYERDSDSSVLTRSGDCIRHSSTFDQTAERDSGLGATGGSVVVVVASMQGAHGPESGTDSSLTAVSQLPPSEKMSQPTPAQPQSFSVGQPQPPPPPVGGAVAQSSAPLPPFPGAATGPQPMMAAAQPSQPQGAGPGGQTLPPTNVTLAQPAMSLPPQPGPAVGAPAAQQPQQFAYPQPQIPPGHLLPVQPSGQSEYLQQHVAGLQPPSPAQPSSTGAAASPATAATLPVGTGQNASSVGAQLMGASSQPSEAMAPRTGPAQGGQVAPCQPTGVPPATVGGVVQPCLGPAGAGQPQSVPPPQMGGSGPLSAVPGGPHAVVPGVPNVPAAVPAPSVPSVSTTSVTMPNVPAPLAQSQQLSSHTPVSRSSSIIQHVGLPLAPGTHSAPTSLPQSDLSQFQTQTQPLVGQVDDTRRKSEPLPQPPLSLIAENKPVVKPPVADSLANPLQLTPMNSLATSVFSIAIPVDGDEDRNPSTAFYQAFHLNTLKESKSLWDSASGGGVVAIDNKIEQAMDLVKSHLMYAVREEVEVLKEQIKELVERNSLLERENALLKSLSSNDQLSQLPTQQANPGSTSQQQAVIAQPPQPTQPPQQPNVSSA

What was measured:
Assay in all cases: log2 fold change, soluble protein after heating vs DMSO (PISA); higher = thermal stabilisation; K562 cells, 10 uM, 30 min; active = over 0.2 and 3.5 SD of the protein, either way, in both replicates (recomputed)
[1] = compound: CS(=O)(=O)c1ccc(-c2cnc(N)c(C(=O)Nc3ccccc3)n2)cc1
Method in brief: (§1)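 K562 cells at 2×10^6 cells/mL were exposed to 10 μM compound for 30 min, then aliquots were heated for 3 min across 48°C-58°C, pooled, and extracted in PBS containing 0.5% NP-40 at 4°C. The supernatant after 21,000xg for 90 min was taken as soluble protein and measured by TMTpro 16plex LC-MS/MS with channel sums equalised. Thermal stability is reported relative to control samples, with values from duplicates. Fold changes are given on a log2 scale.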

[2] = compound: C[C@@H](Oc1cc(-c2cnn(C3CCNCC3)c2)cnc1N)c1c(Cl)ccc(F)c1Cl [crizotinib]
Method in brief: as §1

[3] = compound: C[C@@H]1COCCN1C2=NC(=NC(=C2)C3(CC3)S(=O)(=O)C)C4=C5C=CNC5=CC=C4
Method in brief: as §1

[4] = compound: C[C@H](C1=CC=C(C=C1)C(=O)NC2=C3C=CNC3=NC=C2)N
Method in brief: as §1

[5] = compound: C[C@H](Nc1ncnc2nc[nH]c12)c1cc2cccc(Cl)c2c(=O)n1-c1ccccc1 [duvelisib]
Method in brief: as §1

[6] = compound: Cc1cc(Nc2cc(CN3CCOCC3)c3nc(C)c(Cc4ccc(Cl)cc4F)n3n2)n[nH]1 [gandotinib]
Method in brief: as §1

[7] = compound: Cc1cc(Nc2cc(N3CCN(C)CC3)nc(Sc3ccc(NC(=O)C4CC4)cc3)n2)n[nH]1 [tozasertib]
Method in brief: as §1

[8] = compound: Cc1cc(SCc2sc(-c3ccc(C(F)(F)F)cc3)nc2C)ccc1OCC(=O)O
Method in brief: as §1

[9] = compound: Cc1ccc(-n2nc(C(C)(C)C)cc2NC(=O)Nc2ccc(OCCN3CCOCC3)c3ccccc23)cc1 [doramapimod]
Method in brief: as §1

[10] = compound: Cc1ccc(C(=O)N(CCCN)[C@@H](c2nc3cc(Cl)ccc3c(=O)n2Cc2ccccc2)C(C)C)cc1 [ispinesib]
Method in brief: as §1

[11] = compound: Cc1ccc(NC(=O)c2ccc(CN3CC[C@H](N(C)C)C3)c(C(F)(F)F)c2)cc1Nc1nccc(-c2cncnc2)n1 [bafetinib]
Method in brief: as §1

[12] = compound: Cc1cccc(CC(=O)N2CCc3c2ccc(-c2cn(C)c4ncnc(N)c24)c3F)n1
Method in brief: as §1

[13] = compound: Cc1cn(-c2cc(NC(=O)c3ccc(C)c(Nc4nccc(-c5cccnc5)n4)c3)cc(C(F)(F)F)c2)cn1 [nilotinib]
Method in brief: as §1

[14] = compound: Cc1nc(Nc2n[nH]c3c2CN(C(=O)N[C@H](CN(C)C)c2ccccc2)C3(C)C)c2sccc2n1
Method in brief: as §1

[15] = compound: Cc1nc(Nc2ncc(C(=O)Nc3c(C)cccc3Cl)s2)cc(N2CCN(CCO)CC2)n1 [dasatinib]
Method in brief: as §1

[16] = compound: Cc1ncc(-c2ccnc(Nc3ccc(S(C)(=O)=O)cc3)n2)n1C(C)C
Method in brief: as §1

[17] = compound: Cn1cc(-c2ccc3c(c2)CCN3C(=O)Cc2cccc(C(F)(F)F)c2)c2c(N)ncnc21
Method in brief: as §1

[18] = compound: Cn1cc(-c2ccc3nnc(C(F)(F)c4ccc5ncccc5c4)n3n2)cn1
Method in brief: as §1

[19] = compound: Cn1cncc1[C@@](N)(c1ccc(Cl)cc1)c1ccc2c(c1)c(-c1cccc(Cl)c1)cc(=O)n2C [tipifarnib]
Method in brief: as §1

[20] = compound: FC(F)(F)c1ccc(/C=C/c2nc(COc3ccc(CCCCn4ccnn4)cc3)co2)cc1 [mubritinib]
Method in brief: as §1

Measured: log2 fold change

TRNT1 (UniProt Q96Q11)
inactive: [1] 0.028 | [2] -0.068 | [3] 0.009 | [4] -0.014 | [5] 0.009 | [6] -0.042 | [7] -0.083 | [8] 0 | [9] -0.038 | [10] 0.012 | [11] -0.075 | [12] -0.063 | [13] -0.073 | [14] 0.034 | [15] -0.076 | [16] 0.007 | [17] 0.027 | [18] -0.011 | [19] -0.008 | [20] -0.067

TRIM56 (UniProt Q9BRZ2)
inactive: [1] -0.021 | [2] -0.081 | [3] -0.161 | [4] 0.372 | [5] -0.084 | [6] 0 | [7] -0.05 | [8] 0.075 | [9] 0.156 | [10] -0.233 | [11] -0.183 | [12] -0.035 | [13] 0.057 | [14] 0.166 | [15] 0.047 | [16] -0.208 | [17] -0.275 | [18] -0.066 | [19] 0.195 | [20] -0.126

TOMM40L (UniProt Q969M1)
inactive: [1] -0.063 | [2] 0.003 | [3] 0.072 | [4] -0.105 | [5] 0.046 | [6] -0.149 | [7] -0.031 | [8] -0.041 | [9] -0.003 | [10] -0.01 | [11] -0.057 | [12] 0.042 | [13] -0.008 | [14] 0.033 | [15] 0.039 | [16] -0.027 | [17] -0.028 | [18] 0.014 | [19] 0.12 | [20] 0.049

TPM3 isoform 2 (UniProt P06753)
inactive: [1] -0.02 | [2] 0 | [3] -0.019 | [4] -0.021 | [5] -0.022 | [6] -0.063 | [7] -0.046 | [8] -0.087 | [9] 0.007 | [10] 0.002 | [11] -0.03 | [12] -0.06 | [13] -0.004 | [14] -0.023 | [15] -0.017 | [16] -0.034 | [17] 0 | [18] 0.037 | [19] 0.202 | [20] 0.017

TPT1 (UniProt P13693)
inactive: [1] 0.075 | [2] -0.096 | [3] 0.031 | [4] -0.033 | [5] -0.027 | [6] -0.055 | [7] -0.018 | [8] 0.027 | [9] -0.002 | [10] 0.091 | [11] 0.081 | [12] 0.058 | [13] 0.164 | [14] -0.008 | [15] -0.072 | [16] -0.036 | [17] 0.084 | [18] -0.026 | [19] -0.084 | [20] 0.186

TRIM33 (UniProt Q9UPN9)
inactive: [1] 0.215 | [2] 0.072 | [3] 0 | [4] -0.115 | [5] 0.087 | [6] 0 | [7] 0.121 | [8] 0.173 | [9] 0.021 | [10] -0.043 | [11] -0.022 | [12] 0.015 | [13] -0.034 | [14] 0.088 | [15] -0.299 | [16] 0.038 | [17] -0.061 | [18] 0.09 | [19] -0.044 | [20] -0.048

TRAF4 (UniProt Q9BUZ4)
inactive: [1] -0.038 | [2] -0.082 | [3] -0.091 | [4] 0.043 | [5] 0.041 | [6] 0.07 | [7] 0 | [8] 0.036 | [9] -0.016 | [10] -0.053 | [11] -0.028 | [12] -0.15 | [13] 0.009 | [14] -0.039 | [15] 0.061 | [16] 0.021 | [17] -0.048 | [18] 0.001 | [19] 0.019 | [20] 0.062

TPD52L1 (UniProt Q16890)
inactive: [1] 0.023 | [2] -0.011 | [3] 0.024 | [4] -0.086 | [5] -0.007 | [6] 0.012 | [7] 0.044 | [8] 0.003 | [9] -0.054 | [10] 0.003 | [11] -0.024 | [12] 0.013 | [13] 0.005 | [14] 0.045 | [15] 0 | [16] -0.01 | [17] 0.04 | [18] -0.074 | [19] -0.039 | [20] 0.053

TOR1A (UniProt O14656)
inactive: [1] -0.009 | [2] 0.049 | [3] 0.042 | [4] -0.015 | [5] 0.014 | [6] -0.017 | [7] -0.026 | [8] -0.017 | [9] -0.024 | [10] 0.011 | [11] -0.035 | [12] -0.029 | [13] -0.048 | [14] 0.001 | [15] -0.005 | [16] -0.006 | [17] 0.046 | [18] -0.01 | [19] 0.023 | [20] 0.01

TRMT1L (UniProt Q7Z2T5)
inactive: [1] -0.06 | [2] 0.032 | [3] -0.534 | [4] 0.424 | [5] -0.232 | [6] 0.275 | [7] 0.003 | [8] 0.002 | [9] 0.306 | [10] -0.161 | [11] 0.236 | [12] 0.035 | [13] -0.035 | [14] 0.15 | [15] 0.124 | [16] -0.016 | [17] -0.328 | [18] -0.193 | [19] 0.158 | [20] -0.107

TP53RK (UniProt Q96S44)
inactive: [1] -0.019 | [2] 0.041 | [3] 0.022 | [4] -0.035 | [5] 0.036 | [6] -0.079 | [7] -0.029 | [8] -0.028 | [9] -0.007 | [10] 0.043 | [11] -0.014 | [12] 0.034 | [13] -0.018 | [14] 0.026 | [15] 0.063 | [16] -0.012 | [17] 0.023 | [18] 0.013 | [19] -0.027 | [20] 0.016

TRAPPC4 (UniProt Q9Y296)
inactive: [1] 0.024 | [2] 0.014 | [3] 0.027 | [4] -0.013 | [5] 0.027 | [6] -0.096 | [7] -0.011 | [8] 0.011 | [9] -0.013 | [10] -0.015 | [11] 0.001 | [12] 0.01 | [13] -0.034 | [14] -0.066 | [15] -0.027 | [16] -0.034 | [17] -0.023 | [18] 0.042 | [19] 0.03 | [20] -0.011

TRIP4 (UniProt Q15650)
inactive: [1] -0.07 | [2] -0.07 | [3] -0.134 | [4] 0.084 | [5] -0.004 | [6] 0.026 | [7] -0.014 | [8] 0.032 | [9] 0.045 | [10] -0.124 | [11] -0.03 | [12] 0.015 | [13] -0.052 | [14] -0.05 | [15] -0.017 | [16] 0.014 | [17] -0.02 | [18] -0.096 | [19] -0.051 | [20] -0.088

TNKS1BP1 (UniProt Q9C0C2)
inactive: [1] 0.021 | [2] 0.025 | [3] -0.023 | [4] 0.003 | [5] 0.018 | [6] 0.055 | [7] -0.033 | [8] -0.062 | [9] 0.008 | [10] 0.006 | [11] -0.039 | [12] -0.032 | [13] 0.051 | [14] 0.015 | [15] 0.018 | [16] -0.011 | [17] 0.016 | [18] 0.007 | [19] 0.016 | [20] 0.016

TRAPPC12 (UniProt Q8WVT3)
inactive: [1] -0.002 | [2] -0.03 | [3] -0.021 | [4] 0.071 | [5] 0.017 | [6] -0.124 | [7] 0.027 | [8] 0.039 | [9] 0.02 | [10] -0.075 | [11] -0.035 | [12] 0.044 | [13] -0.07 | [14] -0.068 | [15] -0.203 | [16] -0.003 | [17] -0.017 | [18] -0.034 | [19] -0.123 | [20] 0.028

Quoted at random: two entries already listed, in no set order.
TRAPPC12 (UniProt Q8WVT3)
inactive: [1] -0.002 | [2] -0.03 | [3] -0.021 | [4] 0.071 | [5] 0.017 | [6] -0.124 | [7] 0.027 | [8] 0.039 | [9] 0.02 | [10] -0.075 | [11] -0.035 | [12] 0.044 | [13] -0.07 | [14] -0.068 | [15] -0.203 | [16] -0.003 | [17] -0.017 | [18] -0.034 | [19] -0.123 | [20] 0.028

TRAPPC4 (UniProt Q9Y296)
inactive: [1] 0.024 | [2] 0.014 | [3] 0.027 | [4] -0.013 | [5] 0.027 | [6] -0.096 | [7] -0.011 | [8] 0.011 | [9] -0.013 | [10] -0.015 | [11] 0.001 | [12] 0.01 | [13] -0.034 | [14] -0.066 | [15] -0.027 | [16] -0.034 | [17] -0.023 | [18] 0.042 | [19] 0.03 | [20] -0.011

(cont.)

TSC22D2 (UniProt O75157)
inactive: [1] -0.071 | [2] 0.031 | [3] -0.045 | [4] -0.034 | [5] 0.093 | [6] 0.05 | [7] 0.053 | [8] -0.11 | [9] -0.004 | [10] 0.001 | [11] -0.075 | [12] -0.124 | [13] 0.032 | [14] 0.085 | [15] 0.01 | [16] -0.075 | [17] 0.035 | [18] 0.138 | [19] 0.099 | [20] 0.003
